{"source": "patent US11066447B2", "about": "“Aureobasidium derivatives and methods of synthesis” (AureoGen Biosciences, Inc., priority 2016, dated 2021)", "assay_in_all_cases": "MIC/MEC assay (CLSI microdilution)", "assay_type_in_all_cases": "cell-based", "settings_in_all_cases": "RPMI plus 0.002% Tween-80; 48 hr", "key": {"A. flavus MMX 5948": {"tested_on": "A. flavus MMX 5948", "procedure": "(§1) Aureobasidin and test compounds (i.e., AbA derivatives of the present invention) were received from Kalexsyn, Inc. (Kalamazoo, Mich.) as powder and were stored at 4° C. until the day of assay. […] amphotericin was obtained from Sigma Aldrich and stored under like conditions. […] Ethanol (95%) was used as a solvent and diluent for all AbA compounds. Amphotericin B was tested from 0.06-64 μg/mL. Amphotericin B (Sigma Aldrich; St. Louis, Mo.; Cat No. A9528-100MG, Lot No. 120M4087) was dissolved and diluted with dimethylsulfoxide (DMSO; Sigma Aldrich; St. Louis, Mo.; Cat No. 472301 Lot No. SHBD2072V).\n(§2) The solvents were added to the test agents and the stock solutions stood for approximately 1 hr at room temperature prior to use to auto sterilize. Stock solutions were prepared at 40× the desired top concentration in the test plate.\n(§3) All of the test isolates were originally received from either the American Type Culture Collection (ATCC), clinical labs, or directly from Aureogen Biosciences. Organisms stored by Micromyx were cultured on agar medium appropriate to each organism. Colonies were picked by swab from the isolation plates and put into suspension in appropriate broth containing cryoprotectant. The suspensions were aliquoted into cryogenic vials and maintained at −80° C.\n(§4) Prior to testing, Candida isolates were streaked from the frozen vials on Sabouraud dextrose agar. The yeast isolates were incubated for 48 hours at 35° C. before use. The fungal isolates were obtained from enumerated fungal stocks previously prepared at Micromyx and stored in phosphate buffered saline at 4° C.\n(§5) Test Media. The medium employed for the MIC assay was RPMI-1640 medium from HyClone Laboratories (Logan, Utah; Lot No. AYB60287A). The medium was prepared according to Clinical and Laboratory Standards Institute (CLSI) guidelines (1, 2), and modified to include 0.002% Tween-80. Candida parapsilosis ATCC 22019 (MMX 2323) and Aspergillus fumigatus ATCC MYA-3626 (MMX 5280) were also tested without Tween-80 to provide data for the quality control of amphotericin B in accordance with CLSI (3) and to assess the effect of Tween-80 on the activity of the test agents.\n(§6) Test Procedure. The MIC assay method followed the procedure described by CLSI (1, 2) and employed automated liquid handlers to conduct serial dilutions and liquid transfers. Automated liquid handlers included the Multidrop 384 (Labsystems, Helsinki, Finland), Biomek 2000 and Biomek FX (Beckman Coulter, Fullerton Calif.). The wells in columns 2-12 in standard 96-well microdilution plates (Costar 3795) were filled with 150 μl of the appropriate diluent (95% EtOH for investigational compounds, 100% DMSO for amphotericin B). These assay plates would become the ‘mother plates’ from which the assay ‘daughter plates’ would be prepared. […]"}, "[1]": {"tested_on": "A. niger MMX 0624 ATCC 16888", "procedure": "as §1, §2, §3, §4, §5, §6"}, "[2]": {"tested_on": "A. fumigatus MMX 6782 ATCC 13073", "procedure": "as §1, §2, §3, §4, §5, §6"}}, "note": "At least one read-out could not be matched to a standard name with certainty. Numbered stars: 1 amine (or outer) side, 2 acyl side, 3 side chain; on linkers, the order of the positions; unused ones are H or OH. Square brackets hold non-standard residues; d marks the D form. Peptide text beside a SMILES is read from it. ξ: configuration not given here. X5 = CN([C@@H](Cc1cccc(-c2ccc3cnccc3c2)c1)C(=O)[*:2])[*:1]; NMeVal(β-OH) = CN[C@H](C(=O)O)C(C)(C)O; X6 = CCC(C)[C@@H](O[*:1])C(=O)[*:2]; Ile(3ξ) = CCC(C)[C@H](N)C(=O)O; NMeV = CN[C@H](C(=O)O)C(C)C; ξL = CC(C)CC(N)C(=O)O", "data": [{"smiles": "CCC(C)[C@@H]1NC(=O)[C@@H]2CCCN2C(=O)[C@H](Cc2cccc(-c3ccc4cnccc4c3)c2)N(C)C(=O)[C@H](Cc2ccccc2)NC(=O)[C@H](C(C)C)N(C)C(=O)[C@@H](C(C)CC)OC(=O)[C@H](C(C)(C)O)N(C)C(=O)C(CC(C)C)NC(=O)[C@H](C(C)C)N(C)C1=O", "note": "(stereo partly drawn) [Compound 6] (cyclo(F[X5]P[Ile(3ξ)][NMeV][ξL][NMeVal(β-OH)][X6][NMeV]))", "values": [{"measurement": "MIC", "setting": "A. flavus MMX 5948", "value": 0.5, "unit": "µg/mL"}, {"measurement": "MEC", "setting": "[1]", "value": "0.06/0.06 μg/mL"}, {"measurement": "MIC", "setting": "[1]", "value": "0.06/0.06 μg/mL"}, {"measurement": "MEC", "setting": "[2]", "value": 0.5, "unit": "µg/mL"}]}]}
